{"source": "PubChem BioAssay AID624291", "about": "(National Center for Advancing Translational Sciences (NCATS), 2012)", "note": "The campaign covered roughly 350,000 compounds. About 220 (0.063%) were called active. This list was built around the results that the source calls inconclusive (neither active nor inactive); the mix of calls is not that of the screen. Calls follow the shape of the dose curve; as a rule, active = well fitted activation curve with a large enough effect; inconclusive = small, poorly fitted or top-dose-only effect; inactive = no such curve, though single readings can be large or run the other way. A potency beside an inconclusive call is a rough fit, not a confirmed value. Potency is read from the fitted curve at half-maximal effect.", "data": [{"experiment": "qHTS for Activators of Integrin-Mediated Alleviation for Muscular Dystrophy; also: nearly all actives have a fitted effect of over 60% in size;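 as to activation: 100% = response of the positive control SU9516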", "settings": "alpha7betagal myoblasts, beta-gal FDG fluorescence, 48 h; activation: at 38.3 µM (top of the series)", "outline": "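alpha7betagal+/- myoblasts (passage 13, 250/well) treated 48 h at 37C with compounds at 1:260 dilution of DMSO stock. Lysed, then beta-galactosidase activity read as FDG fluorescence (ex 480/em 540) after 30 min, with pre-read for autofluorescence.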", "values": [{"smiles": "Cc1cc(C)c(CN2CCN(CCCn3ccc(NC(=O)OCc4ccccc4)nc3=O)CC2)c(C)c1", "Potency": "inactive"}, {"smiles": "CC(C)c1ccc(NC(=S)NN(c2ccccc2)c2ccccc2)cc1", "Potency": "inconclusive: 5.01 µM [activator, single point]"}, {"smiles": "N#Cc1ccncc1S(=O)c1ccc(Cl)cc1", "note": "(stereo not given)", "Potency": "inconclusive: 25.1 µM [activator, single point]"}, {"smiles": "CC(C)(C)c1ccc(C(=O)N2CCN(CCNC(=O)C(=O)NCc3ccc(Cl)cc3)CC2)cc1", "Potency": "inconclusive: 2 µM [activator, full curve, poor fit]"}, {"smiles": "COc1cc(OC)c(C2=NOC(C(=O)NCc3cccnc3)C2)cc1Cl", "note": "(stereo not given)", "Potency": "inconclusive: 3.98 µM [activator, single point]"}, {"smiles": "NNC(=O)COc1cccc(Oc2ccccc2)c1", "Potency": "inconclusive: 2.24 µM [activator, full curve, poor fit]"}, {"smiles": "Cc1cc(C)cc(NC(=O)c2sc3nc(C)cc(C)c3c2N)c1", "Potency": "inactive"}, {"smiles": "CC(=O)c1ccc(N2CCN(S(=O)(=O)c3cc4c(cc3C)NC(=O)CO4)CC2)cc1", "Potency": "inconclusive: 11.2 µM [activator, partial curve, poor fit]"}, {"smiles": "COc1ccccc1OCC#CCNC1CCCCC1C", "note": "(stereo not given)", "Potency": "inconclusive: 6.31 µM [activator, partial curve, poor fit]"}, {"smiles": "O=C(O)CN1C(=O)/C(=C2\\C(=O)N(Cc3ccccc3Cl)c3ccccc32)SC1=S", "Potency": "inconclusive: 28.2 µM [activator, single point]"}, {"smiles": "COc1cc(N=Nc2ccc(C)cc2S(N)(=O)=O)c(C)cc1N", "Potency": "inconclusive: 5.01 µM [activator, single point]"}, {"smiles": "COc1ccc(-c2nnn(CC(=O)N(CCO)C(C(=O)NC3CCCC3)c3ccncc3)n2)cc1", "note": "(stereo not given)", "Potency": "inactive"}, {"smiles": "CC(O)CNc1nc2c(c(=O)n(Cc3ccc(Br)cc3)c(=O)n2C)n1C", "note": "(stereo not given)", "Potency": "inconclusive: 2.82 µM [activator, full curve, poor fit]"}, {"smiles": "CC1CC(=O)N(C)c2ccc([N+](=O)[O-])cc2N1", "note": "(stereo not given)", "Potency": "inconclusive: 3.98 µM [activator, single point]"}, {"smiles": "CN(Cc1ccccc1)C(=O)C1CCCN(Cc2ccc(Cl)cc2)C1", "note": "(stereo not given)", "Potency": "inconclusive: 5.01 µM [activator, single point]"}, {"smiles": "Cc1ncc([N+](=O)[O-])n1Cc1ccc(F)cc1", "Potency": "inconclusive: 0.501 µM [activator, full curve, poor fit]"}, {"smiles": "O=C(CCNC(=O)c1ccc(Cl)cc1)Nc1ccncc1", "Potency": "inactive"}, {"smiles": "CCOC(=O)c1cc(=O)c2ccc(OCc3ccccc3)cc2o1", "Potency": "inconclusive: 28.2 µM [activator, single point]"}, {"smiles": "CCC/C(=N\\NC(=O)CNC(=O)c1ccc(Cl)cc1)c1ccccc1", "Potency": "inconclusive: 2.82 µM [activator, single point]"}, {"smiles": "Cc1ccc(NS(=O)(=O)c2c(C)[nH]c(C)c2C(=O)N2CCCCC2)cc1Cl", "Potency": "inconclusive: 5.01 µM [activator, single point]"}, {"smiles": "O=C(COC(=O)CCC(=O)c1cccs1)Nc1cc(S(=O)(=O)N2CCOCC2)ccc1Cl", "Potency": "inconclusive: 2 µM [activator, partial curve, poor fit]"}, {"smiles": "COc1ccc(CCNC(N)=S)cc1OC", "Potency": "inconclusive: 5.62 µM [activator, partial curve, poor fit]"}, {"smiles": "COc1ccc(NC(=O)CSc2nnc(C3CC3)n2-c2ccccc2)cc1", "Potency": "inconclusive: 5.01 µM [activator, single point]"}, {"smiles": "Cc1ccc(OCC(=O)N/N=C\\c2c(C)n(C)c3ccccc23)c([N+](=O)[O-])c1", "Potency": "inactive"}, {"smiles": "CC1CCCN(CCCNC(=O)c2ccc(NC(=O)C3=CSCCO3)cc2)C1", "note": "(stereo not given)", "Potency": "inconclusive: 0.891 µM [activator, single point]"}, {"smiles": "CC1CCN(CCC(=O)Nc2nccs2)CC1", "Potency": "inconclusive: 2.82 µM [activator, single point]"}, {"smiles": "CC(=O)NS(=O)(=O)c1ccc(NC(=O)c2ccc(Cl)cc2[N+](=O)[O-])cc1", "Potency": "inconclusive: 3.55 µM [activator, single point]"}, {"smiles": "CN(C(=O)COC(=O)c1cc2ccccc2cc1O)c1c(N)n(Cc2ccccc2)c(=O)[nH]c1=O", "Potency": "inactive"}, {"smiles": "O=c1cc(Cl)c(-c2ccccc2)nn1Cc1ccc(Cl)cc1", "Potency": "inconclusive: 10 µM [activator, partial curve, poor fit]"}, {"smiles": "COCCCNC(=S)Nc1ccc(S(=O)(=O)Nc2cc(OC)nc(OC)n2)cc1", "Potency": "inconclusive: 12.6 µM [activator, partial curve, poor fit]"}, {"smiles": "O=C(c1ccccc1)N1CCSC1=S", "Potency": "inactive"}, {"smiles": "Cc1ccc(SCCC(=O)N2CCN(S(=O)(=O)c3ccccc3)CC2)cc1", "Potency": "inconclusive: 5.01 µM [activator, single point]"}, {"smiles": "Cc1ccc(S(=O)(=O)NC(=O)c2ccccc2F)cc1", "Potency": "inconclusive: 25.1 µM [activator, single point]"}, {"smiles": "CCC(=O)N1CCN(c2ccccc2NC(=O)COc2cc(C)ccc2C(C)C)CC1", "Potency": "inactive"}, {"smiles": "CCN(CC)c1ccc(Nc2nc(N3CCOCC3)c3ccccc3n2)cc1", "Potency": "inactive"}, {"smiles": "COC1CCCN(C(=O)c2ccc3oc(Cc4ccc(Cl)cc4)nc3c2)C1", "note": "(stereo not given)", "Potency": "inconclusive: 5.01 µM [activator, single point]"}, {"smiles": "Cc1sc2ncnc(Sc3ccccc3C(=O)Nc3ccccc3Cl)c2c1C", "Potency": "inactive"}, {"smiles": "Cc1ccc(-c2cc(-c3ccc4c(c3)OCO4)c(C#N)c(N)n2)o1", "Potency": "inactive"}, {"smiles": "Cc1ccc2c(CNCc3ccccc3)cc(=O)oc2c1", "Potency": "inactive"}, {"smiles": "COC(=O)[C@@]1(Cc2ccccc2)[C@@H]2C(=CC(=O)[C@H]2CC(=O)C(=O)N(C)C)CN1C(=O)c1ccccc1", "Potency": "inactive"}, {"smiles": "Cc1cc(C)c2c(=O)n(CC(=O)N3CCC(N4CCCCC4)CC3)sc2n1", "Potency": "inactive"}, {"smiles": "Cc1cccc(S(=O)(=O)Nc2nc3ccccc3nc2NCC2CCCO2)c1", "note": "(stereo not given)", "Potency": "inconclusive: 28.2 µM [activator, single point]"}, {"smiles": "c1ccc(-n2nnnc2Cc2nnnn2-c2ccccc2)cc1", "Potency": "inconclusive: 2.82 µM [activator, single point]"}, {"smiles": "Cc1cc(-c2onc(C)c2C(=O)O)no1", "Potency": "inactive"}, {"smiles": "O=C(Nc1ccc2c(c1)OCO2)C1CC(=O)N(c2ccccc2)C1", "note": "(stereo not given)", "Potency": "inconclusive: 3.16 µM [activator, single point]"}, {"smiles": "CCOc1ccc(NC(=S)NC(=O)c2c(Br)cnn2C)c([N+](=O)[O-])c1", "Potency": "inactive"}, {"smiles": "O=C(O)c1cccc(N2C(=O)c3cccc4c(Cl)ccc(c34)C2=O)c1", "Potency": "inactive"}, {"smiles": "Cc1ccc(/C=N/NC(=O)Cc2ccc(O)cc2)s1", "Potency": "inactive"}, {"smiles": "COc1ccc(C(OC(=O)c2ccco2)C(=O)NC(C)(C)C)cc1OC", "note": "(stereo not given)", "Potency": "inconclusive: 12.6 µM [activator, single point]"}, {"smiles": "Cc1n[nH]c(C)c1S(=O)(=O)N1CCCC(C(=O)Nc2ccc(Br)cc2)C1", "note": "(stereo not given)", "Potency": "inconclusive: 28.2 µM [activator, single point]"}, {"smiles": "Cc1c(C(=O)N(Cc2cccc(Br)c2)C2CCS(=O)(=O)C2)oc2ccccc12", "note": "(stereo not given)", "Potency": "inconclusive: 4.47 µM [activator, single point]"}, {"smiles": "Cc1nc2cc(NC(=O)NCc3ccco3)ccc2n1C", "Potency": "inactive"}, {"smiles": "COc1cc(C)c(NC(=O)C(=S)NCc2ccccc2)cc1C", "Potency": "inconclusive: 28.2 µM [activator, single point]"}, {"smiles": "Nc1nnc(SCC(=O)Nc2ccccc2)s1", "Potency": "inconclusive: 3.55 µM [activator, single point]"}, {"smiles": "COc1cc(/C=N/NC(=O)c2ccc(NS(=O)(=O)c3cccs3)cc2)cc(OC)c1O", "Potency": "inconclusive: 0.891 µM [activator, full curve, poor fit]"}, {"smiles": "c1ccc2c(c1)ccc1ccccc12", "Potency": "inactive"}, {"smiles": "COc1cc(-c2cc3nc4ccccc4n3c(N)c2C#N)cc(OC)c1OC", "Potency": "inconclusive: 11.2 µM [activator, single point]"}, {"smiles": "NNC(=O)CNC(c1ccccc1)c1cc(Br)ccc1N", "note": "(stereo not given)", "Potency": "inactive"}, {"smiles": "Cc1c(C(=O)N2CCCC2)c(S(=O)(=O)Nc2cccc(Br)c2)c(C)n1C", "Potency": "inconclusive: 28.2 µM [activator, single point]"}, {"smiles": "CCc1nc(SCC(=O)O)c(C#N)cc1C", "Potency": "inactive"}, {"smiles": "Cc1nn(C)c(Cl)c1/C=N/OC(=O)c1ccccc1", "Potency": "inconclusive: 22.4 µM [activator, partial curve, poor fit]"}, {"smiles": "COc1ccc(C2=CSC(/N=C/c3ccc(F)cc3)=NN2)cc1", "Potency": "inconclusive: 1.26 µM [activator, partial curve, poor fit]"}, {"smiles": "COc1ccc(Cl)cc1NC(=O)C/C(C)=N/NC(=O)C(=O)NCc1ccccc1", "Potency": "inconclusive: 22.4 µM [activator, single point]"}, {"smiles": "CCC1=C(c2ccc(C)cc2)S(=O)(=O)N=C1N1CCC(C(=O)NCCCN2CCCCC2C)CC1", "note": "(stereo not given)", "Potency": "inconclusive: 11.2 µM [activator, single point]"}, {"smiles": "Cc1c(C(=O)N2CCN(c3ccc([N+](=O)[O-])cc3)CC2)sc2ncn(CC(=O)N3CCOCC3)c(=O)c12", "Potency": "inactive"}, {"smiles": "O=[N+]([O-])c1cccc(NC(=S)Nc2nc(-c3ccccc3Cl)cs2)c1", "Potency": "inconclusive: 2.24 µM [activator, partial curve, poor fit]"}, {"smiles": "Cc1noc(C)c1S(=O)(=O)Nc1ccc(C#N)cc1", "Potency": "inconclusive: 11.2 µM [activator, single point]"}, {"smiles": "CN1C(=S)SC(N(O)C(=O)Nc2ccc(Cl)c(Cl)c2)C1(C)C", "note": "(stereo not given)", "Potency": "inactive"}, {"smiles": "CCCC(=O)Nc1nnc(S(=O)(=O)N(CC(C)C)c2ccccc2)s1", "Potency": "inconclusive: 5.01 µM [activator, single point]"}, {"smiles": "CCOC(=O)CC1C(=O)NCCN1S(=O)(=O)c1ccc(OC)cc1", "note": "(stereo not given)", "activation": "inconclusive: 38% [activator]"}]}]}
